{"source": "patent US20160158368A1", "about": "“METHODS AND COMPOSITIONS FOR THE TREATMENT OF HISTIOCYTOSIS” (Therapure Biopharma Inc., priority 2014, published 2016)", "tested_on": "U937 cells treated with PMA/DEX", "assay": "PrestoBlue cell viability assay, U937 cells treated with PMA/DEX", "format": "cell-based, human", "settings": "48 hours", "note": "The name of at least one read-out is uncertain."}
{"smiles": "Nc1nc(Cl)nc2c1ncn2C1CC(O)C(CO)O1", "note": "(stereo not shown) [cladribine, 5-(6-amino-2-chloro-purin-9-yl)-2-(hydroxymethyl)oxolan-3-ol]", "values": [{"measurement": "IC50 / activity", "result": "no activity was measured"}]}
